Experimental data from article PMC10785435.

How the values were obtained:
[1] = biological target: Angiopoietin-like 4 (human (endogenous in SKOV3, Hey-A8 and HUVEC)); assay: co-IP; anti-ANGPTL4 antibody, nuclear or cytoplasmic fraction of SKOV3 cells; Protein A/G agarose, pellets washed three times with RIPA buffer, Western blot; also SKOV3 cells treated with the JAK activator Colivelin (Fig. S6D: no significant effect on the binding)
[2] = biological target: Angiopoietin-like 4 (human (endogenous in SKOV3, Hey-A8 and HUVEC)); assay: co-IP; Hey-A8 cells with ESM1 overexpression (interaction increased) and SKOV3 cells with ESM1 knockdown (interaction decreased); Protein A/G agarose, RIPA washes, Western blot
[3] = biological target: Angiopoietin-like 4 (human (endogenous in SKOV3, Hey-A8 and HUVEC)); assay: co-IP; HUVECs cultured with conditioned medium of Hey-A8 cells overexpressing ESM1 (binding decreased) or of SKOV3 cells with ESM1 knockdown (binding increased); Protein A/G agarose, RIPA washes, Western blot

B1: Endothelial cell-specific molecule 1 (protein, UniProt Q9NQ30 20-184)
chain: WSNNYAVDCPQHCDSSECKSSPRCKRTVLDDCGCCRVCAAGRGETCYRTVSGMDGMKCGPGLRCQPSNGEDPFGEEFGICKDCPYGTFGMDCRETCNCQSGICDRGTGKCLKFPFFQYSVTKSSNRFVSLTEHDMASGDGNIVREEVVKENAAGSPVMRKWLNPR
binding [1]: binds

B2: lipoprotein lipase (enzyme, UniProt P06858 28-475)
chain: ADQRRDFIDIESKFALRTPEDTAEDTCHLIPGVAESVATCHFNHSSKTFMVIHGWTVTGMYESWVPKLVAALYKREPDSNVIVVDWLSRAQEHYPVSAGYTKLVGQDVARFINWMEEEFNYPLDNVHLLGYSLGAHAAGIAGSLTNKKVNRITGLDPAGPNFEYAEAPSRLSPDDADFVDVLHTFTRGSPGRSIGIQKPVGHVDIYPNGGTFQPGCNIGEAIRVIAERGLGDVDQLVKCSHERSIHLFIDSLLNEENPSKAYRCSSKEAFEKGLCLSCRKNRCNNLGYEINKVRAKRSSKMYLKTRSQMPYKVFHYQVKIHFSGTESETHTNQAFEISLYGTVAESENIPFTLPEVSTNKTYSFLIYTEVDIGELLMLKLKWKSDSYFSWSDWWSSPGFAIQKIRVKAGETQKKVIFCSREKVSHLQKGKAPAVFVKCHDKSLNKKSG
binding [2]: binds

B3: vascular-endothelial cadherin (protein, UniProt P33151 48-784)
chain: DWIWNQMHIDEEKNTSLPHHVGKIKSSVSRKNAKYLLKGEYVGKVFRVDAETGDVFAIERLDRENISEYHLTAVIVDKDTGENLETPSSFTIKVHDVNDNWPVFTHRLFNASVPESSAVGTSVISVTAVDADDPTVGDHASVMYQILKGKEYFAIDNSGRIITITKSLDREKQARYEIVVEARDAQGLRGDSGTATVLVTLQDINDNFPFFTQTKYTFVVPEDTRVGTSVGSLFVEDPDEPQNRMTKYSILRGDYQDAFTIETNPAHNEGIIKPMKPLDYEYIQQYSFIVEATDPTIDLRYMSPPAGNRAQVIINITDVDEPPIFQQPFYHFQLKENQKKPLIGTVLAMDPDAARHSIGYSIRRTSDKGQFFRVTKKGDIYNEKELDREVYPWYNLTVEAKELDSTGTPTGKESIVQVHIEVLDENDNAPEFAKPYQPKVCENAVHGQLVLQISAIDKDITPRNVKFKFILNTENNFTLTDNHDNTANITVKYGQFDREHTKVHFLPVVISDNGMPSRTGTSTLTVAVCKCNEQGEFTFCEDMAAQVGVSIQAVVAILLCILTITVITLLIFLRRRLRKQARAHGKSVPEIHEQLVTYDEEGGGEMDTTSYDVSVLNSVRRGGAKPPRPALDARPSLYAQVQKPPRHAPGAHGGPGEMAAMIEVKKDEADHDGDGPPYDTLHIYGYEGSESIAESLSSLGTDSSDSDVDYDFLNDWGPRFKMLAELYGSDPREELLY
binding [3]: binds

Results are given in words; binding and its absence hold for the method and conditions named. Binding seen in cells or lysates may run through a third protein. A result given as binding can be weak or reduced; the word gives no strength.
